Results taken from PubChem BioAssay AID1671190 (National Center for Advancing Translational Sciences (NCATS), 2021).
Several values for one entry are separate records, joined by “and”; a condition that tells them apart may be missing. Identical values can stand only once. The whole screen tested about 580,000 compounds, of which about 6,100 (1.1%) were called active. Inconclusive means that the source gave no clear call. Such entries were picked first, then a sample of the others. Calls come from the whole dose curve; as a rule, active = well fitted inhibition curve with a large enough effect; inconclusive = small, poorly fitted or top-dose-only effect, or another doubt; inactive = no such curve, though single readings can be large or run the other way. A potency beside an inconclusive call is a rough fit, not a confirmed value.

Protein sequences, listed by entry. Tags and fused reporters are not part of them. Lines headed by an entry give the natural chain unless they say otherwise; changes in a name come on top.
UniProt P18054: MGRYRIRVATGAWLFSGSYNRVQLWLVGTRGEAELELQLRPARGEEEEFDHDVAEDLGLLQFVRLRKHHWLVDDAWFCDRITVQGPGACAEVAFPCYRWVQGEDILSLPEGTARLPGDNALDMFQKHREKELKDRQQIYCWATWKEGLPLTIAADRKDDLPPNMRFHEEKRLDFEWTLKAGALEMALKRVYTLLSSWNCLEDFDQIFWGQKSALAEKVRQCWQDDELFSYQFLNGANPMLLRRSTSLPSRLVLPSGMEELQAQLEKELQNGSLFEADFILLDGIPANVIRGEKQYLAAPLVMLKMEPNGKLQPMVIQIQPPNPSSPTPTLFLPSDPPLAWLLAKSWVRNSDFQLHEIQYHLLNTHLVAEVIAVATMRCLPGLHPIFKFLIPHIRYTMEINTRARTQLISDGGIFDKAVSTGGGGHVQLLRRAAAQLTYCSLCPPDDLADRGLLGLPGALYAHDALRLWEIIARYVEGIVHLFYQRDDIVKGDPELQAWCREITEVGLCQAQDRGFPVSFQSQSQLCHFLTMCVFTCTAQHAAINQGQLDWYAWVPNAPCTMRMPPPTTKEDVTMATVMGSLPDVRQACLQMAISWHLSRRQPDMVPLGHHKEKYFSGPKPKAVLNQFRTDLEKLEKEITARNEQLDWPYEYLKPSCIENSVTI

Target: Polyunsaturated fatty acid lipoxygenase ALOX12 (Homo sapiens) (UniProt P18054)
Assay: Primary qHTS assay for inhibitors of human arachidonate 12S-lipoxygenase (ALOX12): Round 2
Conditions: purified 12hLO, xylenol orange hydroperoxide absorbance; activity change, negative = inhibition: at 108 µM (top of the series) unless noted
Method in brief: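 Purified human 12hLO (150 nM final) in 25 mM Hepes, 0.01% Triton X-100, pH 7.0 was preincubated 15 min at room temperature with compound. Then 40 uM arachidonic acid was added, 30 min. Hydroperoxide was read by Fe-XO absorbance ratio 573/405 nm.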
% is set by controls: 0 for no effect and ±100 for the full control effect; potency is the fitted concentration of half-maximal effect.

Structure (SMILES) | Potency | activity change, negative = inhibition
CCCCN(C=O)c1c(CC)nc2c(OCCOc3ccc(F)cc3)cccn12 | inconclusive: 112 µM [inhibitor, partial curve, poor fit] | 
NC(=O)NC(=O)C(Cl)c1ccccc1 (centres undefined) | inconclusive: 35.5 µM [inhibitor, partial curve, poor fit] | 
c1ccc(CNNc2ccccc2)cc1 | inconclusive: 20 µM [inhibitor, full curve, poor fit] | 
Cc1ccc(C2(C)NC(=O)N(CC(=O)NCCC3=CCCCC3)C2=O)cc1 (centres undefined) | inconclusive: 6.31 µM [inhibitor, full curve, poor fit] | 
C/C=C/c1ccc(OCC(=O)N(CCOC)c2c(N)n(CCCC)c(=O)[nH]c2=O)c(OC)c1 | inconclusive: 50.1 µM [inhibitor, partial curve, poor fit] | 
CCOC(=O)C1=C(O)/C(=C\c2cc(C)n(-c3ccc(F)cc3)c2C)N=C1C | active: 35.5 µM | 
CCC(C)(C(=O)NC1CCCCC1)N(C(=O)CNC(=O)c1ccccc1)c1ccc(C)cc1 (centres undefined) |  | inactive: -4.9%
O=Cc1cc(OCc2ccccc2)ccc1[B-](F)(F)F |  | inactive: 0%
CNc1ncncc1-c1ccccc1C | inconclusive: 112 µM [inhibitor, partial curve, poor fit] | 
Cc1ccc(CN(Cc2ccco2)C(=O)COc2ccccc2C)cc1 |  | inactive: -24.6%
COc1ccc(C(=O)O)cc1S(=O)(=O)Nc1ccccc1-c1ccccc1 | inconclusive: 44.7 µM [inhibitor, partial curve, poor fit] | 
CCOC(=O)c1ccc(NC(=O)CCc2c(C)nc3c(c(C)nn3-c3ccccc3)c2C)cc1 | inconclusive: 112 µM [inhibitor, partial curve, poor fit] | 
O=C(NNC(=S)Nc1ccc(Br)cc1)c1ccccc1Br |  | inactive: 494%
COC(=O)C(CC(C)C)NC(=O)C(Cc1ccccc1)NC(=O)C1CCCN1C(=O)OC(C)(C)C (centres undefined) |  | inactive: 10.7%
CC[C@]12c3[nH]c4ccc(Cl)cc4c3CCN1C(=O)[C@@H](CC(=O)NCc1ccco1)C[C@@H]2C(=O)N1CCN(C(=O)C2CC2)CC1 | inconclusive: 63.1 µM [inhibitor, single point] | 
COC(=O)c1ccc(N=c2sc(C(=O)OC)cc(=O)n2C)cc1 |  | inactive: 0.429% [at 57.4 µM]
COc1cc(CNc2ccc3[nH]c(=O)[nH]c3c2)ccc1OCc1ccccc1Cl | inconclusive: 0.794 µM [inhibitor, partial curve, poor fit] | 

Structure (SMILES) | Potency | activity change, negative = inhibition
COc1ccc(C(CC(=O)N2CCOCC2)c2c(OC)cc(OC)c3c(-c4ccccc4)cc(=O)oc23)cc1 (centres undefined) | inconclusive: 44.7 µM [inhibitor, partial curve, poor fit] | 
c1ccc(Cn2nnc3c(N4CCc5ccccc54)ncnc32)cc1 |  | inactive: -11.3%
O=C(c1cccs1)N1CC[C@H](c2nnc(-c3ccc(Cl)cc3)o2)C1 | inconclusive: 39.8 µM [inhibitor, partial curve, poor fit] | 
Cc1cc(=O)n(CC(=O)Nc2ccc(F)cc2)c(N2CCc3ccccc3C2)n1 | inactive and inconclusive: 50.1 µM [inhibitor, partial curve, poor fit] | 
CCCCCCCC(=O)NCCCNC(=O)CCCCCCC |  | inactive: 5.23%
Cc1c(C)[n+](=O)c(-c2ccc(Cl)cc2)c(C)n1[O-] | inconclusive: 0.0891 µM [inhibitor, full curve, poor fit] | 
CCCCN(CC(N)=O)CC(=O)NC(N)=O | inconclusive: 15.8 µM [inhibitor, single point] | 
Cc1cc(C)cc(NC(=O)c2ncoc2-c2cccs2)c1 |  | inactive: -5.68%
Cc1cccc(C(=O)Nc2sc3c(c2C(=O)N2CCCCC2)CCC(C)C3)c1 (centres undefined) | inconclusive: 100 µM [inhibitor, partial curve, poor fit] | 
COc1cc2c(cc1OC)[C@@H](NC(=O)CCc1ccccc1)[C@H](OCc1ccccc1)C2 | inconclusive: 158 µM [inhibitor, single point] | 
Cn1c(SCC(=O)N2c3ccccc3Sc3ccc(Cl)cc32)nnc1-c1ccco1 |  | inactive: -20.1%
CC1(C(=O)OCC(=O)c2c[nH]c3ccccc23)CC1(Cl)Cl (centres undefined) | inconclusive: 63.1 µM [inhibitor, partial curve, poor fit] | 
CN1CCc2c(c(N3CCOCC3)nc3sc(C(=O)Nc4ccccc4)c(N)c23)C1 | inconclusive: 28.2 µM [inhibitor, single point] | 
O=C(NCCOC(=O)C1COc2ccccc2O1)c1cccnc1 (centres undefined) | inconclusive: 39.8 µM [inhibitor, partial curve, poor fit] | 
O=C(CSc1nnc(-c2cccc(Br)c2)o1)NCC1CCCO1 (centres undefined) |  | inactive: -4.83%
O=C(COc1ccc(F)cc1)OCCN1CCOCC1 | inconclusive: 31.6 µM [inhibitor, partial curve, poor fit] | 
COc1ccc(CNC(=O)c2cc(COc3c(F)cccc3F)on2)cc1OC |  | inactive: 3.82%
